Assay results reported in publication doi:10.1101/2022.03.04.482944.
No constants are given. Whether binding was seen depends on the method and setting.

Protein sequences, listed by entry. Tags and fused reporters are not part of them. Residues count along the entry.
UniProt O00238, residues 14-502: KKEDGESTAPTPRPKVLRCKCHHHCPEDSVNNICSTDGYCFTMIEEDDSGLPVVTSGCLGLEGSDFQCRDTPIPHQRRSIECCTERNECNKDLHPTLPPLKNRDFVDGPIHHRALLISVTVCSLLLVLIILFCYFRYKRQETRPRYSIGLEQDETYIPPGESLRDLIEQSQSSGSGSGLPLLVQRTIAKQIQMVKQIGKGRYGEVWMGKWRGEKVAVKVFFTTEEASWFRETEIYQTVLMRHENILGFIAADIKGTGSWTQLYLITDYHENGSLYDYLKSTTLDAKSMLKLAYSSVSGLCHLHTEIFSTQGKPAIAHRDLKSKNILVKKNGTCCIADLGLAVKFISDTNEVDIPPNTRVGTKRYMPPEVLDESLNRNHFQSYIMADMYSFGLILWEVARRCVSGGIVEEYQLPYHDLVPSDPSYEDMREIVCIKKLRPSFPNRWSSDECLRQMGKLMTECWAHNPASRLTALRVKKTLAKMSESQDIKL
UniProt P37023, residues 22-503: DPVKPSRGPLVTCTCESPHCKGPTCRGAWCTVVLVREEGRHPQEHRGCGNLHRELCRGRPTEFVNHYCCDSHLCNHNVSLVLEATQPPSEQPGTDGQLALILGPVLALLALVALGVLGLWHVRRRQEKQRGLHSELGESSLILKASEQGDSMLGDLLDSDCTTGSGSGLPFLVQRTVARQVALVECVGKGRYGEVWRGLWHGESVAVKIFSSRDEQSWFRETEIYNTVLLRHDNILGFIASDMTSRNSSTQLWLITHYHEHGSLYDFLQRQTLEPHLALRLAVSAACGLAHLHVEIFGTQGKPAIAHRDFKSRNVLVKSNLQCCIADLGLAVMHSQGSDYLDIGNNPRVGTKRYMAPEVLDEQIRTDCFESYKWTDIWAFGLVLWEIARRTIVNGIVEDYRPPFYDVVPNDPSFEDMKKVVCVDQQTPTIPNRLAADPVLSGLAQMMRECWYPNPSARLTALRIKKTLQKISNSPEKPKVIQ
UniProt P37173, residues 23-567: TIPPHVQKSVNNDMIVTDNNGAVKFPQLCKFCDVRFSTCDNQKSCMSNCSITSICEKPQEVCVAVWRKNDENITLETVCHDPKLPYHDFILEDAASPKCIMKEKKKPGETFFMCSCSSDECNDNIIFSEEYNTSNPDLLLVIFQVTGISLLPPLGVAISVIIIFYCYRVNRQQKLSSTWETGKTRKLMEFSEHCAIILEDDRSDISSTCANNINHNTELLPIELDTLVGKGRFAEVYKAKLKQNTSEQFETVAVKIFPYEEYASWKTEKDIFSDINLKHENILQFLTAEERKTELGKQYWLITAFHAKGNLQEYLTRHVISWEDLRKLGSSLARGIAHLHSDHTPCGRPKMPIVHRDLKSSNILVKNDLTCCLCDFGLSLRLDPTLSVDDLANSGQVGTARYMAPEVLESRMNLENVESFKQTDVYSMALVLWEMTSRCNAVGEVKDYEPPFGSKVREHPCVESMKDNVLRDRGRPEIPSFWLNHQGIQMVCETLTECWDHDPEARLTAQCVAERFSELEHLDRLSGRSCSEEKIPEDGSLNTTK
UniProt P08476, residues 311-426: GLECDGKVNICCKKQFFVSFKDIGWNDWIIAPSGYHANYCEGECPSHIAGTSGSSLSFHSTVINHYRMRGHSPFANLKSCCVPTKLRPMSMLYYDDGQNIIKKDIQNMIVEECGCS

Tests used:
Assay in all cases: Ligand Surface Binding Assay
[1] = target: T1, ALK7-Halo (rat (printed as rALK7)) (UniProt P70539)
T1 sequence: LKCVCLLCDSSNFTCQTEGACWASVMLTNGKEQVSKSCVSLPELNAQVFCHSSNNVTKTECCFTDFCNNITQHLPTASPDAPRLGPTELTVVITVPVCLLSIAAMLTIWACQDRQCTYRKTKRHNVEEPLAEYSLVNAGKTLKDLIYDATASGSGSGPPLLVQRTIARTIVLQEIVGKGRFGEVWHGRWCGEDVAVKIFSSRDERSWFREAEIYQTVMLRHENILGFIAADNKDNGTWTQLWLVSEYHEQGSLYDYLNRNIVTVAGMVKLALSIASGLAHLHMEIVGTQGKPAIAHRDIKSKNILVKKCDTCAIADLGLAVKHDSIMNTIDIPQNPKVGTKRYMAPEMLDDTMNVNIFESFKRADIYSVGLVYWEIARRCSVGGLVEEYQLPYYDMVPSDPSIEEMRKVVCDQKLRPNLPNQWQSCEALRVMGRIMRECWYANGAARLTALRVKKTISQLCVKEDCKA

ALK6-Halo (human) = ALK6-Halo (human) (UniProt O00238)
ALK2-R206H-Halo (human) = target: T2, ALK2-R206H-Halo (human) (UniProt Q04771)
T2 sequence: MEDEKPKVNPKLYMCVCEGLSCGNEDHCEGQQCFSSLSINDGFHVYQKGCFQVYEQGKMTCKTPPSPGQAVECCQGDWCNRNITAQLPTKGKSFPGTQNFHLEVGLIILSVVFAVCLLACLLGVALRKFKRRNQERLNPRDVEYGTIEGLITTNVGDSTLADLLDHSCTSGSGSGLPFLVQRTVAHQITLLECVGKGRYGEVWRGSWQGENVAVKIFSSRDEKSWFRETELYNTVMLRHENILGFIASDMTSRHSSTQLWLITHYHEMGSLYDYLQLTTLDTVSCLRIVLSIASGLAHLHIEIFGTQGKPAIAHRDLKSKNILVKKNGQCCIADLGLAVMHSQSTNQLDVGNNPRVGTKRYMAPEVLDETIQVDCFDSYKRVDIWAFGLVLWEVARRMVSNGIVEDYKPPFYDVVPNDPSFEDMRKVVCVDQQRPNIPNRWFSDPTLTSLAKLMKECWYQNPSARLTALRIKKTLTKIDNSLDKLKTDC

ALK1-Halo (human) = ALK1-Halo (human) (UniProt P37023)
TGFBR2-Halo (human) = TGFBR2-Halo (human) (UniProt P37173)

binding [1]: no binding (tested: 2 nM) | binding (ALK6-Halo (human)): no binding (tested: 2 nM) | binding (ALK2-R206H-Halo (human)): no binding (tested: 2 nM) | binding (ALK1-Halo (human)): no binding (tested: 2 nM) | binding (TGFBR2-Halo (human)): no binding (tested: 2 nM)
Substance: Activin A-Cy5 (from UniProt P08476 311-426) (ligand)
